Measurements published in article PMC5702613.
No constants are given. Whether binding was seen depends on the method and setting. Some results given as binding are weak or reduced against the parent protein; the word gives no strength.

Experiments:
[1] = target: Homo sapiens TRAF6 RZ3 (RING domain and first three zinc fingers, residues 50-211) (Homo sapiens) (UniProt Q9Y4K3); test: SEC-MALS; oligomeric status of TRAF6; MALS (Dawn 8+) coupled to Superdex 200 10/300 GL; dimer to monomers; both purified
[2] = target: Homo sapiens TRAF6 RZ3 (RING domain and first three zinc fingers, residues 50-211) (Homo sapiens) (UniProt Q9Y4K3); test: SEC; each TRAF6 protein (wild type or mutant) at 40 µM on Superdex 200 Increase 10/300; dimer to monomers; both purified

B1: Homo sapiens TRAF6 RZ3 (RING domain and first three zinc fingers, residues 50-211) (domain or fragment, UniProt Q9Y4K3 50-211)
chain: MEEIQGYDVEFDPPLESKYECPICLMALREAVQTPCGHRFCKACIIKSIRDAGHKCPVDNEILLENQLFPDNFAKREILSLMVKCPNEGCLHKMELRHLEDHQAHCEFALMDCPQCQRPFQKFHINIHILKDCPRRQVSCDNCAASMAFEDKEIHDQNCPLA
- binding [1]: binds weakly
- binding [2]: binds weakly
